Measured values from patent publication US10131656B2, “Organic thin film transistor, method of manufacturing organic thin film transistor, organic thin film transistor material, organic thin film transistor composition, organic semiconductor film, and compound” (FUJIFILM Corporation, priority 2015, dated 2018).

Experiment: Evaluation of carrier mobility of organic thin film transistor (FET element)
Conditions: organic thin film transistor with 50 nm organic semiconductor film of the compound; −80 V source-drain, gate 20 V to −100 V

SMILES	Carrier mobility
S=c1c2ccc3c4ccc5c(=S)n(C6CCCCC6)c(=S)c6cc7sc8cc(c(=S)n1C1CCCCC1)c2c3c8c7c4c56 [Example Compound 3]	A (Those having carrier mobility of 10^−2 cm^2/Vs or greater were evaluated as “A”)
CCCCCCCCCCC(CCCCCCCC)CCn1c(=O)c2ccc3c4ccc5c(=O)n(CCC(CCCCCCCC)CCCCCCCCCC)c(=O)c6cc7sc8cc(c1=O)c2c3c8c7c4c56 (centres unmarked) [Comparative Compound 1]	C (those having carrier mobility of less than 10^−4 cm^2/Vs were evaluated as “C”)
